Source: paper PMC10682394, “A papain-like cysteine protease-released small signal peptide confers wheat resistance to wheat yellow mosaic virus” (Nature Communications, 2023)
These are yes or no findings as the source states them, for the method shown. Where a sequence is shown, tags or fusion partners need not be part of it.

Molecular target: TaRD21A^S without signal peptide (TaRD21A^S-ΔSP), GAL4 DNA-binding domain fusion (wheat (Triticum aestivum))
Assay: two-hybrid; AH109 yeast; TaRD21A^S-ΔSP in the GAL4 DNA-binding domain (pGBKT7), WYMV proteins in the GAL4 activation domain (pGADT7); selective medium SD/-Trp-Leu-His-Ade/X-α-GAL, dilutions 10^0 to 10^-4

B1: WYMV P3, GAL4 activation domain fusion (protein, UniProt Q9YJW3 1-328)
chain: MEQTLAQAVSRRNKTDTPMAEERKHFSPMNFSANFVAPELFYSANVRKIKNIFKERSTTRFLDAISSDFELVAFLTLSPAHLMQLETVLRQEMRSCAVPIVTSDASFETVAVIKTALDGMRFHFGYTTLEKGWISMMRHAESCLQESSSSAVNDLQTPIKRVGSLLLSGKNRVEGCELSVLNLTARRFRIEYGLNGTYFGEHVAMLRDLKRYIYGTVPKEFLWAKTKKHLPFTIPAWITRTPIDCFLFCLRVIPILHRFGVAMSLIYFSCVAALNFPAFMGFLFKRQFAKYLAHSFAKHSIYFMFLTIVAILWSFRTFTSQKPKIVLQ
Question: For B1, which binding is on record?
Answer: no binding
